Results from doi:10.1101/2020.04.12.019257.
No constants are given. Whether binding was seen depends on the method and setting. In cells and extracts the contact can be indirect.

Chains of the proteins cited; added tags and fusions are not shown.
UniProt P90916: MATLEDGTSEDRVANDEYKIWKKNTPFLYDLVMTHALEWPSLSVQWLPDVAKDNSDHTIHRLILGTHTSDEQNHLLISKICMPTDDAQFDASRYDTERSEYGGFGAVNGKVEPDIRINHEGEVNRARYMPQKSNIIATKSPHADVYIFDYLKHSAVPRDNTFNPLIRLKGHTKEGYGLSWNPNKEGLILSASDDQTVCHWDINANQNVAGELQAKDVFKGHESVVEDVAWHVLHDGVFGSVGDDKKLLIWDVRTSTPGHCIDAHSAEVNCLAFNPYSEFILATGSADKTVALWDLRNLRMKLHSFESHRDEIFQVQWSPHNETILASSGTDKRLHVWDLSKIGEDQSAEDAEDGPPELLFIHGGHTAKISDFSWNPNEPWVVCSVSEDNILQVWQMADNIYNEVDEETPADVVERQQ
UniProt Q20060: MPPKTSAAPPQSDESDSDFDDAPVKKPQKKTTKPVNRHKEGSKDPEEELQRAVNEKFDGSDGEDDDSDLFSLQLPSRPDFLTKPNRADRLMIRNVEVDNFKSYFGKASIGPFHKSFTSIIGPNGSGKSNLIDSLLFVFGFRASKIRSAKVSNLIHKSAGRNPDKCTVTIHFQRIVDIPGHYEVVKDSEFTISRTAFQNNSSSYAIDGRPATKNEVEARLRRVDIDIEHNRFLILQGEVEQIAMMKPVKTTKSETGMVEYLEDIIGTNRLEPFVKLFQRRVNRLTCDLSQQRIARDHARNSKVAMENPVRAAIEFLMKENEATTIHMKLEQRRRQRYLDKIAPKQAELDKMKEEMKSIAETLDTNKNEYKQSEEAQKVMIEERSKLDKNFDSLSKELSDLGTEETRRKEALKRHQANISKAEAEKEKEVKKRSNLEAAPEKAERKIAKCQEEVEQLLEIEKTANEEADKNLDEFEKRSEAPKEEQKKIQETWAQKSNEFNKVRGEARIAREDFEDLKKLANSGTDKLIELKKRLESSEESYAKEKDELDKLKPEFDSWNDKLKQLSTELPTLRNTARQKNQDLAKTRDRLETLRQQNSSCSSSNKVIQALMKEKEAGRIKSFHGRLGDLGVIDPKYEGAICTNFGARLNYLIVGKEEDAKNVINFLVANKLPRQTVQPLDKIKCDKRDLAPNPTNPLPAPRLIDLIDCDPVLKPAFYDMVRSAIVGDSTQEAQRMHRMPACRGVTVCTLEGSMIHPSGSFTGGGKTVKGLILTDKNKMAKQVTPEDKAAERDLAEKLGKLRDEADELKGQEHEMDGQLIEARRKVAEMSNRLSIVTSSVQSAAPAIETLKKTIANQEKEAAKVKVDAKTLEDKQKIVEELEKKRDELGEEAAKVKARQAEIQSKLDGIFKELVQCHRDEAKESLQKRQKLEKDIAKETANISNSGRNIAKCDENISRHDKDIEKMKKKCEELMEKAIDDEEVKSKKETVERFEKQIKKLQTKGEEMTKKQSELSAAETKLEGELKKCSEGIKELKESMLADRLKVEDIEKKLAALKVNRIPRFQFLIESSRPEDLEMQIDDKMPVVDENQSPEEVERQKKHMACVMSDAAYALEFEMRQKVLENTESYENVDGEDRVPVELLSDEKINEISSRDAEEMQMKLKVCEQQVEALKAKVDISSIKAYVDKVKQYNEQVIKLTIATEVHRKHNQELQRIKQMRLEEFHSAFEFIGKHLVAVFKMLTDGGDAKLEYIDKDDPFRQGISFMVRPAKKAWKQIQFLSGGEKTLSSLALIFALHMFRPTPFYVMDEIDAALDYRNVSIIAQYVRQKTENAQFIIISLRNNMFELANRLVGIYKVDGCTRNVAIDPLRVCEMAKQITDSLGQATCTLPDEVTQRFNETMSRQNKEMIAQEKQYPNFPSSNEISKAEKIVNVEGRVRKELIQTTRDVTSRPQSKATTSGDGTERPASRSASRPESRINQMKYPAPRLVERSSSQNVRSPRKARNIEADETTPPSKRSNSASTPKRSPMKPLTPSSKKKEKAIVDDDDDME

Biological target: RbAp46/48^LIN-53 (C. elegans) (UniProt P90916)
Assay: co-IP

Substance: condensin II subunit SMC-4 (from UniProt Q20060 1-1549)
- binding: no binding
